Measured values: the supplement of paper PMC11098740
The list shows a part of the results. Many values rest on one well or one pass, so single values are uncertain.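 The assay uses a mixed pool of 41 HAP1 clones in which 61 cancer-associated proteins bear intron-inserted fluorescent tags, and clones are distinguished by image pattern. Results are compared against DMSO-treated control wells, and the BRD4 degrader dBET6 is the positive control.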

Amino acid sequences for entries named in this document (tags omitted).
UniProt O14980, whole entry: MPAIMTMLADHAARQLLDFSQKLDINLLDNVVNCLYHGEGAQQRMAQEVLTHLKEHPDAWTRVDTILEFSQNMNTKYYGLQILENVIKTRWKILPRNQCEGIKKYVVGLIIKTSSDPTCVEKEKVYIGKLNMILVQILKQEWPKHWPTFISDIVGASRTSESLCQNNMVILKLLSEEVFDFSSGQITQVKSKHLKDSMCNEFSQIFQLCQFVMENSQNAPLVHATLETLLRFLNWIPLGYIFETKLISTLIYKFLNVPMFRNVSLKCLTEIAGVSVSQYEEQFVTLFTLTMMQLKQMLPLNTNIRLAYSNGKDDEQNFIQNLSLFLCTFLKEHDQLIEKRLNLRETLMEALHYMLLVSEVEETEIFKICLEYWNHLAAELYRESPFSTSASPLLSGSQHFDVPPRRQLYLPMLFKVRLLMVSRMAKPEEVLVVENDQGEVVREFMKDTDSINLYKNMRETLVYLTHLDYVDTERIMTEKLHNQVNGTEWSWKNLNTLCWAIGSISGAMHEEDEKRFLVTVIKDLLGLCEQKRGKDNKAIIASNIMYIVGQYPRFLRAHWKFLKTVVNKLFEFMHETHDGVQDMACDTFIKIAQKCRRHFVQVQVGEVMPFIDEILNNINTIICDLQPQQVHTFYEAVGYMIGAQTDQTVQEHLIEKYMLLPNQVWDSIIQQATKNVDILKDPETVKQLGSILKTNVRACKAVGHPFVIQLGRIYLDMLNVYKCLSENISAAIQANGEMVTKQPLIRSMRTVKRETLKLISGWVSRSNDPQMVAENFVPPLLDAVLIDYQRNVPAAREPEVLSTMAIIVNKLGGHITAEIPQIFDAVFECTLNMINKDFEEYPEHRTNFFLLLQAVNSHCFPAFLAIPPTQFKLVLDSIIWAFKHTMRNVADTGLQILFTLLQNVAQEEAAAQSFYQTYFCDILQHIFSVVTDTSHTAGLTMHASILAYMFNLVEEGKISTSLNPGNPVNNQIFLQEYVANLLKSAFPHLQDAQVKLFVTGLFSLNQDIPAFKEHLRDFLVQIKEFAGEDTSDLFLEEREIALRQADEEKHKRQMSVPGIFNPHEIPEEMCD

Biological target: XPO1 (intron 15 mScarlet tag, HAP1) (UniProt O14980)
Test: XPO1 fluorescence intensity change vs DMSO (log2 fold change); higher = more XPO1 protein
Conditions: 6 h

| SMILES | XPO1 fluorescence intensity change (log2) |
| --- | --- |
| O=C(CCc1cccs1)Nc1ncc(Cc2cccc(Cl)c2)s1 (0.1 µM) | -0.0127 |
| CC(C)CC(=O)Nc1ccc(-c2cn3ccccc3n2)cc1 (10 µM) | 0.134 |
| COCCOC(=O)c1c(C)[nH]c(C(=O)Nc2ccccc2Cl)c1C (1 µM) | 0.0445 |
| O=C(/C=C/c1cccc(Br)c1)c1ccc(O)c(CCCl)c1 (0.1 µM) | 0.0508 |
| COc1ccc(/C=C(\C(=O)c2cccs2)N2C=CC=CC2=C(C#N)C#N)cc1 (1 µM) | 0.0774 |
| Cc1cc2cc(NC(=O)c3ccc(OCc4c(C)noc4C)cc3)ccc2[nH]1 (10 µM) | -0.0255 |
| CC(NCCN1CCNCC1)c1cc(C(C)(C)C)cc2c1CCC2(C)C (stereo unspecified) (10 µM) | 0.165 |
| O=C(Nc1ccc(-c2nc3ccccc3[nH]2)cc1)C1CCC1 (10 µM) | 0.0837 |
| COc1ccc(-c2csc(NC(=O)c3cc(C)nn3C)n2)cc1 (0.1 µM) | -0.00497 |
| O=C(CCNC(=O)c1cnccn1)Nc1nc(-c2ccccc2Cl)c(-c2ccccc2Cl)s1 (10 µM) | 0.0313 |
| Cc1cccc(N2CCN(C(=O)c3cccc(Cl)c3)CC2C)c1 (stereo unspecified) (10 µM) | -0.0207 |
| NS(=O)(=O)OC[C@@H]1C[C@@H](n2ccc3c(N[C@H]4CCc5ccccc54)ncnc32)C[C@@H]1O (2 µM) | -0.0259 |
| N#CC(C#N)=C1C=CC=CN1/C(=C/c1ccc(Cl)cc1)C(=O)c1ccccc1 (10 µM) | 0.0862 |
| CC(=O)NCCc1nc2ccccc2n1CCCOc1cccc2ccccc12 (1 µM) | -0.102 |
| O=C(Nc1nc(-c2ccccn2)cs1)c1cncc(Br)c1 (10 µM) | -0.145 |
| CCN(/N=C/c1c(OC)nc2sccn12)c1ccc(C)cc1 (10 µM) | -0.0115 |
| COC(=O)C1=C(CCl)N(C)C(=O)NC1c1ccccc1 (stereo unspecified) (10 µM) | 0.145 |
| CC(C)NS(=O)(=O)c1ccc(C(=O)Nc2cc(N(C)C)ccc2C#N)cc1 (10 µM) | 0.0065 |
| O=C(Nc1ncc(Cc2ccc(F)cc2)s1)c1ccc2c(c1)OCO2 (1 µM) | -0.108 |
| c1csc(-c2nnc(Sc3ccc4nccnc4n3)o2)c1 (10 µM) | 0.123 |
| CSc1ccc(NC(=O)c2cc(-c3ccncc3)nc3ccccc23)cc1 (10 µM) | -0.081 |
| O=C(NCc1ccc(F)cc1)c1nnc(CCl)s1 (10 µM) | 0.332 |

Taken from above:
Entry of CC(NCCN1CCNCC1)c1cc(C(C)(C)C)cc2c1CCC2(C)C (stereo unspecified) (10 µM) under XPO1 fluorescence intensity change (log2): 0.165
Entry of O=C(CCNC(=O)c1cnccn1)Nc1nc(-c2ccccc2Cl)c(-c2ccccc2Cl)s1 (10 µM) under XPO1 fluorescence intensity change (log2): 0.0313
Entry of CC(C)NS(=O)(=O)c1ccc(C(=O)Nc2cc(N(C)C)ccc2C#N)cc1 (10 µM) under XPO1 fluorescence intensity change (log2): 0.0065
Entry of O=C(Nc1ncc(Cc2ccc(F)cc2)s1)c1ccc2c(c1)OCO2 (1 µM) under XPO1 fluorescence intensity change (log2): -0.108
Entry of O=C(Nc1ccc(-c2nc3ccccc3[nH]2)cc1)C1CCC1 (10 µM) under XPO1 fluorescence intensity change (log2): 0.0837

Biological target: BRD4 (intron 10 mScarlet tag, HAP1) (UniProt O60885)
Test: BRD4 median nuclear fluorescence intensity change vs DMSO (log2 fold change); higher = more BRD4 protein
Conditions: 6 h

| SMILES | BRD4 median nuclear fluorescence intensity change (log2) |
| --- | --- |
| O=C(/C=C/c1ccccc1)c1ccc(O)c(CCCl)c1 (10 µM) | -0.048 |
| O=C(NCC1CN(Cc2ccccc2)CCO1)Nc1ccc(F)cc1 (stereo unspecified) (10 µM) | 0.0734 |
| O=C(Nc1ccc(S(=O)(=O)C(F)F)cc1)N1CCc2sccc2C1 (0.1 µM) | 0.00664 |
| Oc1ccc(-c2csc(-c3cccc(F)c3)n2)cc1O (10 µM) | -0.15 |
| COc1ccc2cc(C(C)c3nc4ccccc4n3C(C)C)ccc2c1 (stereo unspecified) (0.1 µM) | 0.122 |
| COc1ccc(O)c(C(=O)c2cnc3cc4c(cc3c2)OCCO4)c1 (1 µM) | -0.0402 |
| Fc1cc(CCl)c2c(c1)COC(c1ccsc1)O2 (stereo unspecified) (1 µM) | 0.0515 |
| CN(CCC(=O)NC(=O)NC12CC3CC(CC(C3)C1)C2)CCc1ccccn1 (10 µM) | 0.0961 |
| N#CC(C#N)=C1C=CC=CN1/C(=C/c1ccccc1Cl)C(=O)c1cccs1 (0.1 µM) | 0.219 |
| COc1cc(OC)c2[nH]c(C(=O)Nc3ccc(F)cc3)cc2c1 (10 µM) | 0.00257 |
| O=C(Nc1ccc(Oc2ccncc2)cc1)c1cccc2ccccc12 (0.1 µM) | 0.144 |
| CN(C)c1c(F)cc(NC(=O)NCc2ccccc2CO)cc1F (10 µM) | 0.133 |
| COCc1ccc(C(=O)Nc2cc(C)ccn2)cc1 (1 µM) | -0.0153 |
| Cc1ccc(CNC(N)=NCc2ccccc2)cc1 (10 µM) | 0.0117 |
| CN(CCO)CC(O)Cn1c2ccc(Br)cc2c2cc(Br)ccc21 (stereo unspecified) (10 µM) | 0.0378 |
| COc1ccc(CCNc2ncnc3scc(-c4cccs4)c23)cc1OC (10 µM) | -0.13 |
| O=C(Nc1ccc(N2CCCCCC2)cc1)c1ccccc1 (10 µM) | 0.0843 |
| O=C(CCc1cccs1)Nc1ncc(Cc2cccc(Cl)c2)s1 (0.1 µM) | 0.0645 |
| CC(C)CC(=O)Nc1ccc(-c2cn3ccccc3n2)cc1 (10 µM) | 0.000298 |
| COCCOC(=O)c1c(C)[nH]c(C(=O)Nc2ccccc2Cl)c1C (1 µM) | 0.0431 |

| SMILES | BRD4 median nuclear fluorescence intensity change (log2) |
| --- | --- |
| O=C(/C=C/c1cccc(Br)c1)c1ccc(O)c(CCCl)c1 (0.1 µM) | 0.0197 |
| COc1ccc(/C=C(\C(=O)c2cccs2)N2C=CC=CC2=C(C#N)C#N)cc1 (1 µM) | 0.0869 |
| Cc1cc2cc(NC(=O)c3ccc(OCc4c(C)noc4C)cc3)ccc2[nH]1 (10 µM) | 0.169 |
| CC(NCCN1CCNCC1)c1cc(C(C)(C)C)cc2c1CCC2(C)C (stereo unspecified) (10 µM) | 0.0796 |
| O=C(Nc1ccc(-c2nc3ccccc3[nH]2)cc1)C1CCC1 (10 µM) | 0.00263 |
| COc1ccc(-c2csc(NC(=O)c3cc(C)nn3C)n2)cc1 (0.1 µM) | 0.0901 |
| O=C(CCNC(=O)c1cnccn1)Nc1nc(-c2ccccc2Cl)c(-c2ccccc2Cl)s1 (10 µM) | 0.00564 |
| Cc1cccc(N2CCN(C(=O)c3cccc(Cl)c3)CC2C)c1 (stereo unspecified) (10 µM) | -0.037 |
| NS(=O)(=O)OC[C@@H]1C[C@@H](n2ccc3c(N[C@H]4CCc5ccccc54)ncnc32)C[C@@H]1O (2 µM) | 0.0786 |
| N#CC(C#N)=C1C=CC=CN1/C(=C/c1ccc(Cl)cc1)C(=O)c1ccccc1 (10 µM) | 0.0646 |
| CC(=O)NCCc1nc2ccccc2n1CCCOc1cccc2ccccc12 (1 µM) | 0.127 |
| O=C(Nc1nc(-c2ccccn2)cs1)c1cncc(Br)c1 (10 µM) | -0.0952 |
| CCN(/N=C/c1c(OC)nc2sccn12)c1ccc(C)cc1 (10 µM) | 0.0813 |
| COC(=O)C1=C(CCl)N(C)C(=O)NC1c1ccccc1 (stereo unspecified) (10 µM) | 0.072 |
| CC(C)NS(=O)(=O)c1ccc(C(=O)Nc2cc(N(C)C)ccc2C#N)cc1 (10 µM) | 0.0239 |
| O=C(Nc1ncc(Cc2ccc(F)cc2)s1)c1ccc2c(c1)OCO2 (1 µM) | -0.058 |
| c1csc(-c2nnc(Sc3ccc4nccnc4n3)o2)c1 (10 µM) | 0.116 |
| CSc1ccc(NC(=O)c2cc(-c3ccncc3)nc3ccccc23)cc1 (10 µM) | 0.0447 |
| O=C(NCc1ccc(F)cc1)c1nnc(CCl)s1 (10 µM) | 0.0741 |
